Test results from patent publication EP4538285A1.
Results are given in words; binding and its absence hold for the method and conditions named. Some results given as binding are weak or reduced against the parent protein; the word gives no strength.

Target: hPD-L1-Fc (PD-L1 fused to an Fc derived from human IgG1) (human) (UniProt Q9NZQ7+P01857)
Assay: flow cytometry, variant on 293T cells, PD-L1-Fc

B1: PD-1 variant SEQ ID NO: 7, expressed on cells (108-CD28 enhanced receptor) (receptor)
chain: PGWFLDSPDRPWNPPTFSPALLVVTEGDNATFTCSFSNTSESFVLNWYRMSPSNQTDKLAAFPEDRINRSQDCRFRVTQLPNGRDFHMSVVRARRNDSGTYLCGAISLSTPVWIKESLRAELRVTERRAEVPTAHPSPSPRPAGQFQTLVVGVVGGLLGSLVLLVWVLAVIRSKRSRLLHSDYMNMTPRRPGPTRKHYQPYAPPRDFAAYRS
binding: binds
